Experimental data: patent US20150140001A1 (Scripps Research, published 2015)

B1: clec14a-CTLD IgG clone 1 (antibody, V domains shown)
VH: EVQLLESGGGLVQPGGSLRLSCAASGFTFSGYDMSWVRQAPGKGLEWVSGIYPDGGNTYYADSVKGRFTISRDNSKNTLYLQMNSLRAEDTAVYYCARGATWWVLGPFDYWGQGTLVTVSS
VL: QSVLTQPPSASGTPGQRVTISCTGSSSNIGNNSVTWYQQLPGTAPKLLIYADSHRPSGVPDRFSGSKSGTSASLAISGLRSEDEADYYCGAWDDSLSGYVFGGGTKLTVL
notes: scFv converted to IgG; Lambda light chain, detected with anti-human lambda antibody
B2: clec14a-CTLD IgG clone 2 (antibody, V domains shown)
VH: EVQLLESGGGLVQPGGSLRLSCAASGFTFSSYDMSWVRQAPGKGLEWVSVISPDSSSTYYADSVKGRFTISRDNSKNTLHLQMNSLRAEDTAVYYCARHTGWQSRPHTYYDYGMDVWGQGTLVTVSS
VL: B1 VL with T23S, S33A, A51S, S53N, A91T, D94A
notes: Lambda light chain
B3: clec14a-CTLD IgG clone 3 (antibody, V domains shown)
VH: EVQLLESGGGLVQPGGSLRLSCAASGFTFSDYYMSWVRQAPGKGLEWVSLISYDGGSTYYADSVKGRFTISRDNSKNTLYLQMNSLRAEDTAVYYCARSNDWFDYWGQGTLVTVSS
VL: B1 VL with T23S, N31S, S33N, T35Y, A51Y, H54Q, G98A
notes: Lambda light chain
B4: clec14a-CTLD IgG clone 4 (antibody, V domains shown)
VH: EVQLLESGGGLVQPGGSLRLSCAASGFTFSGYYMSWVRQAPGKGLEWVSVIYSGDGSTYYADSVKGRFTISRDNSKNTLYLQMNSLRAEDTAVYYCARGLNSSSALPFDYWGQGTLVTVSS
VL: B1 VL with T23S, N31S, S33A, T35N, H54N, A91S, D94Y, G98A

Target: Fc fragment of IgG1
Assay: ELISA, coated Fc fragment of IgG1

Row | Binder | binding
1 | B1 | no binding (tested: 67 nM clec14a-CTLD IgG (Example 8))
2 | B2 | no binding (tested: 67 nM clec14a-CTLD IgG (Example 8))
3 | B3 | no binding (tested: 67 nM clec14a-CTLD IgG (Example 8))
4 | B4 | no binding (tested: 67 nM clec14a-CTLD IgG (Example 8))

Substitutions are numbered along the chain they refer to. No constants are given. Whether binding was seen depends on the method and setting.
